Literature values in patent US8361512B2, “Nutrient compositions and methods for enhanced effectiveness of the immune system” (K-PAX Vitamins, Inc., priority 2003, dated 2013).
Some entries share one result that the patent states for a list of compounds.

System: patients beginning antiretroviral therapy
Details: patients beginning stavudine or didanosine containing antiviral regimens

Cc1cn([C@H]2C=C[C@@H](CO)O2)c(=O)[nH]c1=O [stavudine]
patients in whom peripheral neuropathy (PN) occurs: ≥ 10%
